{"sequences": {"note": "Protein sequences, listed by entry. Tags and fused reporters are not part of them. Lines headed by an entry give the natural chain unless they say otherwise; changes in a name come on top.", "UniProt P02724": "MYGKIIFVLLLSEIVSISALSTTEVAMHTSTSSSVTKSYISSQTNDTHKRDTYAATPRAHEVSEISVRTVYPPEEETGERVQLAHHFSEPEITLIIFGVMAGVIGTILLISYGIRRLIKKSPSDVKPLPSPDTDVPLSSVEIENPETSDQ"}, "source": "patent US20210171652A1", "binders": {"B1": {"name": "KP3-03 Fab/phage clone (anti-Band 3, Wrb) (Fab, V domains shown)", "VH": "EVQLLESGPGLVKPSETLSLTCTVSGSSLSSAYGWNWIRQPPGKGLEWIGSIGGSRDNTNYNPSLKRRVTISKDTSKNQFSLKLKSVTAADTAVYYCAQRGAYGYSYFDYWGQGVLVAVSS", "VL": "AAELTQSPATLSLSPGETATLSCRASQSVGSYLAWYQQKPGQAPKLLVHGAYFRAAGIPDRFTGSGSRTDFTLTISSLEPEDVGIYHCQQYNDLLPLTFGGGTKVEIK"}}, "biological_target": "Band 3 / glycophorin A (Wright b, Wrb epitope) on human red blood cells (human) (UniProt P02724)", "assay": "Fab/phage binding assays on human RBCs incl. rare RBC types lacking conserved antigens", "note": "These are yes or no findings as the source states them, for the method shown. Some binding calls cover weakened binding; strength is not graded here.", "data": [{"binder": "B1", "values": [{"measurement": "binding", "value": "binds"}]}]}
